{"source": "the supplement of paper PMC12578635", "note": "± gives the standard deviation of the averaged measurements. This is one part of the list. Many values rest on one well or one pass, so single values are uncertain."}
{"system": "RAW 264.7 macrophages infected with S. aureus JE2-lux", "test": "host macrophage viability (CellTiter-Fluor) relative to DMSO vehicle; higher = more viable host cells", "settings": "10 µM; treatment time 4 h; gentamicin 50 µg/ml", "units": {"host macrophage viability": "%"}}
{"smiles": "N#Cc1cc2cc3c(cc2nc1SCC(=O)NCC1CCCO1)OCCO3", "note": "(stereo not drawn)", "host macrophage viability": 145}
{"smiles": "CCc1c(C)nc(SCC(=O)Nc2cc(C)on2)[nH]c1=O", "host macrophage viability": 96.7}
{"smiles": "CCOC(=O)c1sc(NC(=O)c2cccc(C)c2)cc1C", "host macrophage viability": "123 ± 9.6"}
{"smiles": "Cn1c(SCC(=O)Nc2nc3ccccc3s2)nnc1-c1ccccc1", "host macrophage viability": 103}
{"smiles": "Cc1ccc(NC(=O)CCN2C(=O)/C(=C\\c3ccco3)SC2=S)c(C)c1", "host macrophage viability": 111}
{"smiles": "O=C(CSc1nc(=O)n(CC2CCCO2)c2c1CCCC2)Nc1ccc([N+](=O)[O-])cc1", "note": "(stereo not drawn)", "host macrophage viability": 104}
{"smiles": "Brc1ccc(-c2csc3ncnc(N4CCCCC4)c23)cc1", "host macrophage viability": 67.8}
{"smiles": "CCOC(=O)c1ccccc1Nc1nc(C)nc2c1CCC2", "host macrophage viability": 97.1}
{"smiles": "O=c1cc(CO)oc(C(Nc2ccccn2)c2cccc(F)c2)c1O", "note": "(stereo not drawn)", "host macrophage viability": 102}
{"smiles": "COc1cccc2sc(NC(=O)c3ccc(N4C(=O)CCC4=O)cc3)nc12", "host macrophage viability": 117}
{"smiles": "NC(=O)c1c(NC(=O)C2=COCCO2)sc2c1CCCCC2", "host macrophage viability": 104}
{"smiles": "COc1cc2cc(C#N)c(SCC(=O)NCc3ccco3)nc2cc1OC", "host macrophage viability": 120}
{"smiles": "Cn1c(=O)c2c(nc(SCCN3CCCCC3)n2Cc2ccc(Cl)cc2)n(C)c1=O", "host macrophage viability": 96.2}
{"smiles": "CS(=O)(=O)c1cc([N+](=O)[O-])c(Sc2nc3ccccc3o2)c([N+](=O)[O-])c1", "host macrophage viability": 78.5}
{"smiles": "O=C(O)c1nc(N2CCCCC2)c2c(-c3ccccc3F)noc2n1", "host macrophage viability": 75.3}
{"smiles": "COc1cc(C(=O)Nc2nc3c(ccc4ccccc43)s2)cc(OC)c1OC", "host macrophage viability": 134}
{"smiles": "O=C(Nc1nc2c(s1)CCC2)c1cccc(NS(=O)(=O)c2ccc(F)cc2)c1", "host macrophage viability": 110}
{"smiles": "CCOC(=O)CC(NC(=O)NCc1ccnc(N2CCSCC2)c1)c1ccccc1", "note": "(stereo not drawn)", "host macrophage viability": 93.7}
{"smiles": "COc1cc(Cl)c(NS(=O)(=O)c2cc(-c3cc(C)no3)cs2)c(OC)c1", "host macrophage viability": 110}
{"smiles": "O=C1COc2ccc(S(=O)(=O)N3CCC(NC(=O)C4CCCC4)CC3)cc2N1", "host macrophage viability": 109}
{"smiles": "Cc1nnc(NC(=O)c2ccccc2C(F)(F)F)s1", "host macrophage viability": 119}
{"smiles": "CCc1ccc(CNC(=O)c2cc3c(=O)n(Cc4cccnc4)ccc3nc2C)cc1", "host macrophage viability": 113}
{"smiles": "CN1C(=O)N(CC(=O)NCc2ccccc2F)c2cccnc2N1C", "host macrophage viability": 129}
{"smiles": "CC(C)CC(=O)N1CCC(c2nnc(C(=O)Nc3cccc(Cl)c3)s2)CC1", "host macrophage viability": 117}
{"smiles": "C#CCn1/c(=N/C(=O)COc2ccc(Cl)cc2Cl)sc2cc(S(N)(=O)=O)ccc21", "host macrophage viability": 108}
{"smiles": "Cc1ccccc1Cn1cc(S(=O)(=O)c2ccc(F)cc2)c(=O)c2cc3c(cc21)OCO3", "host macrophage viability": 138}
{"smiles": "Cc1ccc(C)c(S(=O)(=O)N2CCCC2CNC(=O)C(=O)NCc2cccnc2)c1", "note": "(stereo not drawn)", "host macrophage viability": 113}
{"smiles": "O=C(c1cc(-c2cccs2)on1)N(Cc1cccc(Cl)c1)C1CCS(=O)(=O)C1", "note": "(stereo not drawn)", "host macrophage viability": 109}
{"smiles": "CCOC(=O)c1ccc(Oc2ncnc3sc4c(c23)CCCCC4)cc1", "host macrophage viability": 125}
{"smiles": "Cc1ccc2ncc(NC(=O)N3CCn4cnnc4C3)c(O)c2c1", "host macrophage viability": 128}
{"smiles": "COC(=O)c1c(NC(=O)CC2Sc3ccccc3NC2=O)sc(C)c1C", "note": "(stereo not drawn)", "host macrophage viability": 120}
{"smiles": "O=C(Nc1cccc(-c2ccc3nncn3n2)c1)c1ccc(Cl)nc1", "host macrophage viability": 120}
{"smiles": "CC(CCc1ccccc1)NC(=O)C1CCCN(c2nccnc2Oc2ccccc2)C1", "note": "(stereo not drawn)", "host macrophage viability": 100}
{"smiles": "CCOc1ccc2cc(C#N)c(SCC(=O)NCCc3ccccc3)nc2c1", "host macrophage viability": 111}
{"smiles": "COc1ccc(NC(=O)N2CCC(c3nc4ccccc4o3)CC2)cc1", "host macrophage viability": 99.7}
{"smiles": "CCN(CCCNC(=O)c1c(-c2ccccc2)nnc2ccc(C)cc12)c1ccccc1", "host macrophage viability": 108}
{"smiles": "COCCOC(=O)Cn1nc2c3c(C)c(C)sc3nc(C)n2c1=O", "host macrophage viability": 113}
{"smiles": "Cc1nc(NC(=O)CSc2nc3ccccc3n2CC(=O)NC(C)(C)C)sc1C", "host macrophage viability": 98.5}
{"smiles": "Cc1cc(SCc2ccccc2F)nc(=O)[nH]1", "host macrophage viability": 114}
{"smiles": "COc1cccc(NC(=O)CSc2nccn(-c3ccc(OC)c(Cl)c3)c2=O)c1", "host macrophage viability": 131}
{"smiles": "COCCNC(=O)C(=O)Nc1ccc2c(c1)CCCN2C(=O)c1cccs1", "host macrophage viability": 105}
{"smiles": "O=C(CS(=O)(=O)c1c[nH]c2ccccc12)NC1CCCCC1", "host macrophage viability": 112}
{"smiles": "CN1CCc2cc(C(CNC(=O)Cc3ccc(-c4ccccc4)cc3)N3CCOCC3)ccc21", "note": "(stereo not drawn)", "host macrophage viability": 111}
{"smiles": "CC(CCc1ccccc1)NC(=O)c1ncoc1-c1ccccc1F", "note": "(stereo not drawn)", "host macrophage viability": 108}
{"smiles": "O=C(NCC1CCCO1)C(=O)Nc1cc2c3c(c1)CCC(=O)N3CCC2", "note": "(stereo not drawn)", "host macrophage viability": 118}
{"smiles": "COc1cccc(-n2c(=O)[nH]c3c(C(N)=O)nc(-c4ccccc4Cl)nc32)c1", "host macrophage viability": 139}
{"smiles": "CCOc1ccc(-n2c(C)c(C)c3c2ncn2ncnc32)cc1", "host macrophage viability": 104}
{"smiles": "Cc1cc2oc(C(=O)Nc3ccccc3F)c(C)c2cc1C", "host macrophage viability": 132}
{"smiles": "CNS(=O)(=O)c1cc(-c2cc(C(=O)Nc3ccc(C(C)C)cc3)n[nH]2)ccc1OC", "host macrophage viability": 106}
{"smiles": "COc1ccc(C(=O)Nc2sc3c(c2C(N)=O)CC(C)CC3)cc1OC", "note": "(stereo not drawn)", "host macrophage viability": 114}
{"smiles": "Cc1nn2c(C(F)(F)F)cc(-c3ccncc3)nc2c1-c1ccc(Cl)cc1", "host macrophage viability": 124}
{"smiles": "Cc1cc(NC(=O)Cc2ccccc2)nc2c1c(=O)oc1ccccc12", "host macrophage viability": 124}
{"smiles": "Cc1ccc(NC(=O)c2cnc3n(c2=O)CCS3)c(Br)c1", "host macrophage viability": 99.3}
{"smiles": "COCCCn1c(-c2ccc(Br)cc2)nc(=S)c2c1CCCC2", "host macrophage viability": 105}
{"smiles": "O=C(NNC(=O)c1cc2ccccc2oc1=O)c1ccccc1", "host macrophage viability": "107 ± 16"}
{"smiles": "Cc1ccc(Nc2c(C(=O)N3CCN(c4cccc(Cl)c4)CC3)cnc3c2c(C)nn3C)cc1", "host macrophage viability": 109}
{"smiles": "CN1CCN(n2c3c(c(SCC(=O)NCc4ccc5c(c4)OCO5)nc2=O)CCCC3)CC1", "host macrophage viability": 109}
{"smiles": "O=C(Nc1ccc(I)cc1)c1cc2cc(Cl)ccc2oc1=O", "host macrophage viability": 111}
{"smiles": "CCCc1c(C)nc(N2CCN(c3ccc(F)cc3)CC2)[nH]c1=O", "host macrophage viability": 126}
{"smiles": "CCOC(=O)c1ccc2c(c1)s/c(=N/C(=O)c1cccc(S(=O)(=O)CC)c1)n2CC", "host macrophage viability": 115}
{"smiles": "Cc1ccc2sc(N(CCCn3ccnc3)C(=O)c3ccco3)nc2c1C", "host macrophage viability": 117}
{"smiles": "Cn1c2ccc(F)cc2c2nnc(SCC(=O)NC3CCCCC3)nc21", "host macrophage viability": 114}
{"smiles": "O=c1c(SCc2ccc(Cl)cc2)nccn1-c1ccc(F)cc1", "host macrophage viability": 146}
{"smiles": "O=C(NCCc1nc2cccnc2n1C1CCCC1)NCc1ccco1", "host macrophage viability": 109}
{"smiles": "CCN(CC)C(=O)c1cnc2ccc(Cl)cc2c1O", "host macrophage viability": 94.7}
{"smiles": "CCc1ccc(NC(=O)CCc2nc(-c3nn(-c4ccc(Cl)cc4)c(=O)n(C)c3=O)no2)cc1", "host macrophage viability": 95.1}
{"smiles": "COc1ccc(-c2cnc3c(-c4ccccc4)c(C)nn3c2N)cc1OC", "host macrophage viability": 120}
{"smiles": "COc1ccc(OC)c(NC(=O)C2=C(C)NC(=S)NC2c2ccc(C(C)C)cc2)c1", "note": "(stereo not drawn)", "host macrophage viability": 110}
